According to the supplement of paper PMC11732987, “Enantioselective OTUD7B fragment discovery through chemoproteomics screening and high-throughput optimisation” (Communications Chemistry, 2025):
Some of the results follow. The data scatter; read single values as rough.

Protein sequences, listed by entry. Tags and fused reporters are not part of them. Lines headed by an entry give the natural chain unless they say otherwise; changes in a name come on top. Residues count along the entry.
UniProt O43823: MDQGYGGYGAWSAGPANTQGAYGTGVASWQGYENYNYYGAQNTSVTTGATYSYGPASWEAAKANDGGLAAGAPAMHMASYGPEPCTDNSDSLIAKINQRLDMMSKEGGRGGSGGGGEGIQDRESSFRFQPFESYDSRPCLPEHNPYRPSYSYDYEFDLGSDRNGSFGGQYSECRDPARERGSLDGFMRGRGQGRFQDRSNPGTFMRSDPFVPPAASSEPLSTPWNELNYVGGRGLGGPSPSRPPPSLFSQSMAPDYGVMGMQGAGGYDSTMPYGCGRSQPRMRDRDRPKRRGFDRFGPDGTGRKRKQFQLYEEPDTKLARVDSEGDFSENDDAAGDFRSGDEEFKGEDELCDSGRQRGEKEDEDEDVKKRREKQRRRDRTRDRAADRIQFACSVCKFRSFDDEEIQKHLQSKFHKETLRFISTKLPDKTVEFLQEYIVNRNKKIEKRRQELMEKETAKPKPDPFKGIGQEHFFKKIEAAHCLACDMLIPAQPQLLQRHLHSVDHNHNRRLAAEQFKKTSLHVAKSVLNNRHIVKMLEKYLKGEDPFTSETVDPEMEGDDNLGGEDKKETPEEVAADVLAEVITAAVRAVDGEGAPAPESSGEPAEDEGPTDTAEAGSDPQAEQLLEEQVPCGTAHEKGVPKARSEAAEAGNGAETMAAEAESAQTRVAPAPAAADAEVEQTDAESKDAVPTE
UniProt P51649: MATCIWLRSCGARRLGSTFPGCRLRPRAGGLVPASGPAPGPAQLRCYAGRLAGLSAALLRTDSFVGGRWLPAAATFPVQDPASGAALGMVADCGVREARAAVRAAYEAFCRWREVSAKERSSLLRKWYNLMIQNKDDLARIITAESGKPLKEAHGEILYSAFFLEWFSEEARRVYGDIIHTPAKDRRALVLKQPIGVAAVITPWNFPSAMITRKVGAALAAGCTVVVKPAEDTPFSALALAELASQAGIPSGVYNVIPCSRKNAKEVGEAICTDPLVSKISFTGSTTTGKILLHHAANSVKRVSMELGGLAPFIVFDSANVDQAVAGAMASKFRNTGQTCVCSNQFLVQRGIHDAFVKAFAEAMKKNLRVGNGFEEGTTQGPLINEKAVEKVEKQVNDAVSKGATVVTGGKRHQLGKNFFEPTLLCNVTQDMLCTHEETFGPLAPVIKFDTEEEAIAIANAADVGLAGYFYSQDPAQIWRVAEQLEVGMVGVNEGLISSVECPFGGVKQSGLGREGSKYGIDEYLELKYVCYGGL
UniProt P30520, 2-22: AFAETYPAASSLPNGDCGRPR
UniProt Q8N556: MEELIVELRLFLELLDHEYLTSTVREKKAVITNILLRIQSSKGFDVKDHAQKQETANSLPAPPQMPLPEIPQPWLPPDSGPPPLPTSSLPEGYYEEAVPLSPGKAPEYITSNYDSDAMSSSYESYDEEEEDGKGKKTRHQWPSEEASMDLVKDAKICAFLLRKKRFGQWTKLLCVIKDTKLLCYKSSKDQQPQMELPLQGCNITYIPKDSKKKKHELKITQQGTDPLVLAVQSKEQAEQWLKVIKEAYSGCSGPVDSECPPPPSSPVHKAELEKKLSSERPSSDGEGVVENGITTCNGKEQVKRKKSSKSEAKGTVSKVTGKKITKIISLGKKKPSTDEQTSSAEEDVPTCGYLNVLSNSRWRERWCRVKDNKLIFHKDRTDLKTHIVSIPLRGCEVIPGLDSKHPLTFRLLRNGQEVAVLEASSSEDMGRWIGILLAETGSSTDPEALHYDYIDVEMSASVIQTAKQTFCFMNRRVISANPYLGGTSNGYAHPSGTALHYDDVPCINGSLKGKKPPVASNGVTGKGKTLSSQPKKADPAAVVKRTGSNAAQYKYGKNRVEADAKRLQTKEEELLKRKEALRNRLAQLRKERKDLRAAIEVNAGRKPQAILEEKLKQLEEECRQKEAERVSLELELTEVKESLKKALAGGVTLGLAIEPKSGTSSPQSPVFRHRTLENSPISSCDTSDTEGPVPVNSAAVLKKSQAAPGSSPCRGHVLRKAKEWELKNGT
UniProt Q5T8D3: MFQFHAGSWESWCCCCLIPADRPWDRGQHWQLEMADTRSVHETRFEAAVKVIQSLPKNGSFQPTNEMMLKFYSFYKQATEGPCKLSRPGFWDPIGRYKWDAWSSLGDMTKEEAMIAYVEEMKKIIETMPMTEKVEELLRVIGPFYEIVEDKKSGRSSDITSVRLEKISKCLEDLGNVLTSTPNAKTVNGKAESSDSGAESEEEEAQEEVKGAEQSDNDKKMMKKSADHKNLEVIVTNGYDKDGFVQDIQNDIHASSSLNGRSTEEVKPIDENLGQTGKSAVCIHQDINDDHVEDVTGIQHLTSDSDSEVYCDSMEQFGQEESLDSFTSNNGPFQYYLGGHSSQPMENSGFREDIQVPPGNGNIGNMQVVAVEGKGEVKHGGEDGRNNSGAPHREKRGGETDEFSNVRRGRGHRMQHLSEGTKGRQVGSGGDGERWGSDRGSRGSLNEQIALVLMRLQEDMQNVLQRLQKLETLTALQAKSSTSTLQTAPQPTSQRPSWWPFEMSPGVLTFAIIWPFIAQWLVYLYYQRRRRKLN
UniProt Q8IY63: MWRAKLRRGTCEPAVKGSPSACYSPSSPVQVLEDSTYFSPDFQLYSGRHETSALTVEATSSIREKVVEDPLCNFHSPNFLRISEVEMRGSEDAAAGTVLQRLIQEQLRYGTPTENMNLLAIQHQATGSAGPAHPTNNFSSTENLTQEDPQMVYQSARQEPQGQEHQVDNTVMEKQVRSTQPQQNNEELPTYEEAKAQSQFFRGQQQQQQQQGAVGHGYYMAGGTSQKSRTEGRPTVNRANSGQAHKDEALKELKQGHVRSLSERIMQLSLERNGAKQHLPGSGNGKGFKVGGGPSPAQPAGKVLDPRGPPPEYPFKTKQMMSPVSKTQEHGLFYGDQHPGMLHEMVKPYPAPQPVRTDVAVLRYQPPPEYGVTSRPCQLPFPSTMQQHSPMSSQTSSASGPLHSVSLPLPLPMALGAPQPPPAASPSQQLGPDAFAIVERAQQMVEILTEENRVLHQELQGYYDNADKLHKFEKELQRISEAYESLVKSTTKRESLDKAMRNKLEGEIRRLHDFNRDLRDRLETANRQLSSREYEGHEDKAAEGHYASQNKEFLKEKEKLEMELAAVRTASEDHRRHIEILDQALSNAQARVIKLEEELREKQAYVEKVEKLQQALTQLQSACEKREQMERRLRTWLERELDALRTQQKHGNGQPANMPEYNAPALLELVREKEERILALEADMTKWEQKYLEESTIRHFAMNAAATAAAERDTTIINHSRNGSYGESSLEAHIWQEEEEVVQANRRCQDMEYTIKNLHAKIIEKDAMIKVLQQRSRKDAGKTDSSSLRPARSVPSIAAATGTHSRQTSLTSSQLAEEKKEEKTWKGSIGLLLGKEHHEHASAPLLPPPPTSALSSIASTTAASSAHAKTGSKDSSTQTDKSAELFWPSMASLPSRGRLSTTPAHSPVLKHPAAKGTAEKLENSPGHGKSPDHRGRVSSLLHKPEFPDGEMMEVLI
UniProt Q02952, 1457-1482: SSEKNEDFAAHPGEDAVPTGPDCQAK
UniProt P14621: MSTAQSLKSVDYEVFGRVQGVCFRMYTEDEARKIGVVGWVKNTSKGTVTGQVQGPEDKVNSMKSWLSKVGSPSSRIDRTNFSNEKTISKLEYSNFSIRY
UniProt Q9Y2D5: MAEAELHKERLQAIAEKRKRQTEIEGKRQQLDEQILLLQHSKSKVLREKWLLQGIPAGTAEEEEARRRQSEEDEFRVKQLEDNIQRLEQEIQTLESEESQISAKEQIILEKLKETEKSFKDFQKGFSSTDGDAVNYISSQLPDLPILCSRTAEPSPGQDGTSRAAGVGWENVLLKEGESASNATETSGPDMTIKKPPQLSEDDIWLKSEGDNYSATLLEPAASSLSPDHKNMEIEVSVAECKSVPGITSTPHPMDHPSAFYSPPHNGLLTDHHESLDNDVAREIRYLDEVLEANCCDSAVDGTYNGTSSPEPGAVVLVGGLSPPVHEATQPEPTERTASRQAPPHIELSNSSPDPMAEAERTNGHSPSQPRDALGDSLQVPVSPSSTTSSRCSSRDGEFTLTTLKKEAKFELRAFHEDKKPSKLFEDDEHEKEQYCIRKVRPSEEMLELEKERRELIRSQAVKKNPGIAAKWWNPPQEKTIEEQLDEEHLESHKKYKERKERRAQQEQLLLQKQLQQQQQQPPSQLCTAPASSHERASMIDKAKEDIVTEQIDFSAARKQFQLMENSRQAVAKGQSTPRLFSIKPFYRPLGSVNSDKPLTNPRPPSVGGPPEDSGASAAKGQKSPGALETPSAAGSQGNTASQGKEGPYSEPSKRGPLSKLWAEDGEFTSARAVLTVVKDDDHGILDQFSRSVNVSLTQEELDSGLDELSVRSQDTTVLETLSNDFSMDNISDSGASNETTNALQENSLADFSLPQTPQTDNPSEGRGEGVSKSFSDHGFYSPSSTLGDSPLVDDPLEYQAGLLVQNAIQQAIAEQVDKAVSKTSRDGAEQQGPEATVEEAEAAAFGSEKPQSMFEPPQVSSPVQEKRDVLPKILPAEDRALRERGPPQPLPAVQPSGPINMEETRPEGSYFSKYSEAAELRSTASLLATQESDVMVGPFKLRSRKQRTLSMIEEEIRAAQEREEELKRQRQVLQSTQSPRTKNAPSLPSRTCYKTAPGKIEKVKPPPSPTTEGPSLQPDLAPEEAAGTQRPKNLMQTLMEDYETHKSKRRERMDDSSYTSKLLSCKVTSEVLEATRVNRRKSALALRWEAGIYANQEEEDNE
UniProt Q8TED9: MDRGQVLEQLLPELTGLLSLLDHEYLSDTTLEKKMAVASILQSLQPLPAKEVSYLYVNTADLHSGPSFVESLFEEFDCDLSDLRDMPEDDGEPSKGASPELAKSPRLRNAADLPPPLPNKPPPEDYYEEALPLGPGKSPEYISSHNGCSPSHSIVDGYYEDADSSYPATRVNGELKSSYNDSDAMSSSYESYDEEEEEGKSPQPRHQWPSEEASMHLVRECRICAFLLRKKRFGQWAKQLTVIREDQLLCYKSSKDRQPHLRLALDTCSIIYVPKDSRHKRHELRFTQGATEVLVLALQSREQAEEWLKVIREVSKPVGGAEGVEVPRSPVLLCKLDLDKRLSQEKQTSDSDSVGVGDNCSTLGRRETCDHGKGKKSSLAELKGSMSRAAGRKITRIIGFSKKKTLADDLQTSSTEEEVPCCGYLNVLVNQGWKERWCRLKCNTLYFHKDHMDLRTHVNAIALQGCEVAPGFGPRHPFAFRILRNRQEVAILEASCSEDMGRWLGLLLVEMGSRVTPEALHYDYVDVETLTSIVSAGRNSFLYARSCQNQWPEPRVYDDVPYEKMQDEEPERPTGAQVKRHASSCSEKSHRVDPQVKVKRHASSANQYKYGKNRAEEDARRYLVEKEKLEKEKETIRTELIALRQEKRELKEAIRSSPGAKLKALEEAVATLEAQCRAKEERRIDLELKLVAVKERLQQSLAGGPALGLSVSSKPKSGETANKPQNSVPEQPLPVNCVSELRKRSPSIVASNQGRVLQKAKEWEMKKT
UniProt P24588, whole entry, looked up: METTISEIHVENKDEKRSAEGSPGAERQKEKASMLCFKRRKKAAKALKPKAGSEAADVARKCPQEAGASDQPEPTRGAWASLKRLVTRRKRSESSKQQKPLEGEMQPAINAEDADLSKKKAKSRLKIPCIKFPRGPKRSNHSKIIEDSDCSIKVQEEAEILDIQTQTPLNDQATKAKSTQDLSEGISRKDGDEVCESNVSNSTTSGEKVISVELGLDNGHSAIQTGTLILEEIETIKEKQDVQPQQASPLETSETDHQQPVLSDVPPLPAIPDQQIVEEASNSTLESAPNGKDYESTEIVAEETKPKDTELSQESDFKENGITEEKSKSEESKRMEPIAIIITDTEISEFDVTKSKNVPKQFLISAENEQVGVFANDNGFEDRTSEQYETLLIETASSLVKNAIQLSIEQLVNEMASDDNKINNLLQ
UniProt O95081: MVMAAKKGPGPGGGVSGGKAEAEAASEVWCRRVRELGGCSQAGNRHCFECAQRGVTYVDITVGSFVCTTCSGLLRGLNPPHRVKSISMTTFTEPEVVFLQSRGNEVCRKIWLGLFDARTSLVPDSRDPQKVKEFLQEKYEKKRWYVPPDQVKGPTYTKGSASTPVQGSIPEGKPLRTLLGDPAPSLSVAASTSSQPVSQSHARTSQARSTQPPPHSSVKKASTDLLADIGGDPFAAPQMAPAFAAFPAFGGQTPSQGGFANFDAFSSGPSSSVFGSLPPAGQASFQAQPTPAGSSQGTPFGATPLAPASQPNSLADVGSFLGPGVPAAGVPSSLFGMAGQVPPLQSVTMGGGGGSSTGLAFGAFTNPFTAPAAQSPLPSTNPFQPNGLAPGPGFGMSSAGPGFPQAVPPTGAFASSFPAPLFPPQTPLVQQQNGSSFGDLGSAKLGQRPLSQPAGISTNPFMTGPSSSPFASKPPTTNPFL

Experiments:
[1] = compound: ClCC(=O)N[C@@H]1CCCc2ccccc12; experiment: log2 mean competition ratio of IA-DTB cysteine labelling (DMSO/compound) (log2 ratio); higher = stronger cysteine engagement by compound; settings: treatment time: 4 h, cell line lysate: HEK293T
Procedure: (§1)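 IA-DTB competitive cysteine chemoproteomics in HEK293T RIPA lysate. Lysates were treated with compound 29 or 30 at 50 or 200 µM for 4 h, then IA-DTB (500 µM, 1 h), trypsin-digested, NeutrAvidin-enriched and analysed by diaPASEF. Competition ratio = intensity DMSO / intensity compound (n=4 treated, n=64 DMSO); binding: mean log2 CR ≥ 1 and p ≤ 0.05 plus QC filters. Target is the cysteine site.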

[2] = compound: ClCC(=O)N[C@H]1CCCc2ccccc12; experiment: as above; settings: treatment time: 4 h, cell line lysate: HEK293T
Procedure: as §1

| Target | log2 mean competition ratio ([1]; 50 µM) | log2 mean competition ratio ([1]; 200 µM) | log2 mean competition ratio ([2]; 50 µM) | log2 mean competition ratio ([2]; 200 µM) |
| --- | --- | --- | --- | --- |
| AGTPBP1 C805 (UniProt Q9UPW5) | -0.148 | 0.132 | -0.321 | -0.0823 |
| AHNAK2 C405 (UniProt Q8IVF2) | -0.072 | -0.105 | -0.266 | -0.217 |
| AKAP8 C173 (UniProt O43823) | 0.15 | 0.154 | -0.028 | 0.117 |
| AFDN C870 | 0.354 | -0.292 | 0.678 | -0.066 |
| ALDH5A1 C110 (UniProt P51649) | 0.332 | -0.0894 | 0.571 | 0.0759 |
| ADSS2 C18 (UniProt P30520) | -0.275 | -0.0977 | 0.261 | -0.00603 |
| AFAP1 C713 (UniProt Q8N556) | -0.0379 | 0.102 | 0.202 | 0.243 |
| ADAR C1036 (UniProt P55265) | -0.119 | 0.208 | -0.146 | 0.194 |
| ACBD5 C83 (UniProt Q5T8D3) | -0.195 | 0.433 | 0.0554 | 0.418 |
| AMOTL1 C623 (UniProt Q8IY63) | 0.02 | 0.172 | -0.101 | -0.0921 |
| ANK2 C1425 (UniProt Q01484) | 0.0348 | 0.0853 | -0.0961 | 0.153 |
| AKAP12 C1479 (UniProt Q02952) | -0.174 | -0.193 | 0.211 | -0.201 |
| ACYP2 C22 (UniProt P14621) | 0.297 | 0.0839 | 0.2 | 0.0634 |
| AKAP11 C1820 (UniProt Q9UKA4) | -0.422 | 0.576 | -0.382 | 0.158 |
| ALKBH1 C371 (UniProt Q13686) | -0.247 | -0.0221 | -0.42 | -0.115 |
| ADGRE5 C802 | 0.637 | 0.203 | 0.313 | 0.16 |
| ANKFY1 C742 (UniProt Q9P2R3) | -0.424 | -0.153 | -0.0849 | -0.0497 |
| AKAP2 C205 (UniProt Q9Y2D5) | 0.134 | 0.11 | -0.317 | 0.0392 |
| AFAP1L1 C676 (UniProt Q8TED9) | -0.202 | -0.155 | -0.412 | -0.327 |
| AKAP13 C732 (UniProt Q12802) | 0.0651 | -0.00854 | -0.0644 | 0.178 |
| AKAP5 C36 (UniProt P24588) | – | 0.35 | 0.752 | 0.537 |
| AGFG2 C39 (UniProt O95081) | 0.161 | 0.245 | 0.149 | 0.455 |
| ALS2 C664 (UniProt Q96Q42) | -0.218 | -0.188 | 0.184 | -0.00186 |

Copied from the entries so far for reference:

| Target | log2 mean competition ratio ([1]; 50 µM) | log2 mean competition ratio ([1]; 200 µM) | log2 mean competition ratio ([2]; 50 µM) | log2 mean competition ratio ([2]; 200 µM) |
| --- | --- | --- | --- | --- |
| ALKBH1 C371 (UniProt Q13686) | -0.247 | -0.0221 | -0.42 | -0.115 |
| ADGRE5 C802 | 0.637 | 0.203 | 0.313 | 0.16 |
